This note sets out measurements from patent publication US20240417469A1.

Chains of the proteins cited; added tags and fusions are not shown. Lines headed by an entry give the natural chain unless they say otherwise; changes in a name come on top.
UniProt P07766: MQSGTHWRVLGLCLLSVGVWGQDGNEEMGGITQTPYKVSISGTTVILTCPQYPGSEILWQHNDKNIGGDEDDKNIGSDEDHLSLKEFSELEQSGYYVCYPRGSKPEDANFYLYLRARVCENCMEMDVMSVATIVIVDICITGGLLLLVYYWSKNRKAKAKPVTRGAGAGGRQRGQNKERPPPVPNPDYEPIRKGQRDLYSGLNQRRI
UniProt P04234: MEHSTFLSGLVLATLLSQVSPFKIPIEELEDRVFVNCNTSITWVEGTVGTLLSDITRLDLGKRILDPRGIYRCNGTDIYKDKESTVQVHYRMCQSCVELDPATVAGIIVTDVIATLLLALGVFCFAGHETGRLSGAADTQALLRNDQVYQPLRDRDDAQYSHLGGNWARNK

Results are given in words; binding and its absence hold for the method and conditions named. Some entries that bind do so weakly or less than the wild type.

The experiment deals with human CD3 protein (human) (UniProt P07766+P04234). Nature of the experiment: ELISA. A general note: An ELISA detects its analyte on a solid surface through an enzyme-linked reagent.

B1: Hu153A6B1-1 (antibody, V domains shown)
VH: EVQLQESGPGLVKPSETLSLTCTVSGGSISSYNIHWIRQPPGKGLEWIGRIRYNGDTSYNSALKSRVTISVDTSKNQFSLKLSSVTAADTAVYYCARGPYGGSREPLFDYWGQGTMVTVSS
VL: DIQMTQSPSSLSASVGDRVTITCKTSQNINKYLNWYQQKPGKAPKLLIYTTNNLQTGVPSRFSGSGSGTDFTLTISSLQPEDFATYYCLQHGSGYTFGQGTKLEIK
B1: the binding entry is reported as “binds”.

B2: Hu153A6B1-8 (antibody, V domains shown)
VH: EVQLQESGPGLVKPSETLSLTCTVSGGSISSYNIHWVRQPPGKGLEWIGRIRYNGDTSYNSALKSRVTISRDTSKNQFSLKLSSVTAADTAVYYCARGPYGGSREPLFDYWGQGTMVTVSS
VL: DIQMTQSPSSLSASVGDRVTITCKTSQNINKYLNWFQQKPGKAPKLLIYTTNNLQTGIPSRFSGSGSGTDFTLTISSLQPEDFATYYCLQHGSGYTFGQGTKLEIK
Regarding B2, the binding entry is on record as “binds”.

B3: Hu153A6B1-6 (antibody, V domains shown)
VH: EVQLQESGPGLVKPSETLSLTCTVSGFSLTSYNIHWVRQPPGKGLEWMGRIRYNGDTSYNSALKSRLTISRDTSKNQVSLKLSSVTAADTAVYYCTRGPYGGSREPLFDYWGQGTMVTVSS
VL: DIQMTQSPSSLSASVGDRVTITCKTSQNINKYLNWYQQKPGKAPKLLIYTTNNLQTGVPSRFSGSGSGTDFTLTISSLQPEDFATYYCLQHGSGYTFGQGTKLEIK
As for B3, the binding result was “binds”.

B4: Hu153A6B1-7 (antibody, V domains shown)
VH: EVQLQESGPGLVKPSETLSLTCTVSGGSISSYNIHWIRQPPGKGLEWIGRIRYNGDTSYNSALKSRVTISVDTSKNQFSLKLSSVTAADTAVYYCARGPYGGSREPLFDYWGQGTMVTVSS
VL: DIQMTQSPSSLSASVGDRVTITCKTSQNINKYLNWFQQKPGKAPKLLIYTTNNLQTGIPSRFSGSGSGTDFTLTISSLQPEDFATYYCLQHGSGYTFGQGTKLEIK
In the case of B4, the binding entry was “binds”.

B5: Hu153A6B1-3 (antibody, V domains shown)
VH: EVQLQESGPGLVKPSETLSLTCTVSGGSISSYNIHWVRQPPGKGLEWMGRIRYNGDTSYNSALKSRLTISRDTSKNQFSLKLSSVTAADTAVYYCARGPYGGSREPLFDYWGQGTMVTVSS
VL: DIQMTQSPSSLSASVGDRVTITCKTSQNINKYLNWYQQKPGKAPKLLIYTTNNLQTGVPSRFSGSGSGTDFTLTISSLQPEDFATYYCLQHGSGYTFGQGTKLEIK
B5: the binding entry is given as “binds”.

B6: Hu153A6B1-2 (antibody, V domains shown)
VH: EVQLQESGPGLVKPSETLSLTCTVSGGSISSYNIHWVRQPPGKGLEWIGRIRYNGDTSYNSALKSRVTISRDTSKNQFSLKLSSVTAADTAVYYCARGPYGGSREPLFDYWGQGTMVTVSS
VL: DIQMTQSPSSLSASVGDRVTITCKTSQNINKYLNWYQQKPGKAPKLLIYTTNNLQTGVPSRFSGSGSGTDFTLTISSLQPEDFATYYCLQHGSGYTFGQGTKLEIK
For B6, the binding result was “binds”.

B7: Hu153A6B1-5 (antibody, V domains shown)
VH: EVQLQESGPGLVKPSETLSLTCTVSGFSISSYNIHWVRQPPGKGLEWMGRIRYNGDTSYNSALKSRLTISRDTSKNQVSLKLSSVTAADTAVYYCTRGPYGGSREPLFDYWGQGTMVTVSS
VL: DIQMTQSPSSLSASVGDRVTITCKTSQNINKYLNWYQQKPGKAPKLLIYTTNNLQTGVPSRFSGSGSGTDFTLTISSLQPEDFATYYCLQHGSGYTFGQGTKLEIK
For the molecule B7, the binding result is given as “binds”.

B8: Hu153A6B1-4 (antibody, V domains shown)
VH: EVQLQESGPGLVKPSETLSLTCTVSGGSISSYNIHWVRQPPGKGLEWMGRIRYNGDTSYNSALKSRLTISRDTSKNQFSLKLSSVTAADTAVYYCTRGPYGGSREPLFDYWGQGTMVTVSS
VL: DIQMTQSPSSLSASVGDRVTITCKTSQNINKYLNWYQQKPGKAPKLLIYTTNNLQTGVPSRFSGSGSGTDFTLTISSLQPEDFATYYCLQHGSGYTFGQGTKLEIK
Regarding B8, the binding result is “binds”.
